No constants are given. Whether binding was seen depends on the method and setting. Some entries that bind do so weakly or less than the wild type. Tags and fused reporters may be left off the sequences shown.
Target: mature human GDF8 (growth and differentiation factor-8, myostatin) (human) (UniProt O14793)
Test: soluble ActRIIB as competitor: inhibition of the binding of biotinylated GDF8 (20 ng/ml) to plate-coated ActRIIB-Fc; axis OD 450 nm

Amino acid sequences for entries named in this document (tags omitted). A change or cut given only in a name is not applied to a line headed by its entry.
UniProt O14793: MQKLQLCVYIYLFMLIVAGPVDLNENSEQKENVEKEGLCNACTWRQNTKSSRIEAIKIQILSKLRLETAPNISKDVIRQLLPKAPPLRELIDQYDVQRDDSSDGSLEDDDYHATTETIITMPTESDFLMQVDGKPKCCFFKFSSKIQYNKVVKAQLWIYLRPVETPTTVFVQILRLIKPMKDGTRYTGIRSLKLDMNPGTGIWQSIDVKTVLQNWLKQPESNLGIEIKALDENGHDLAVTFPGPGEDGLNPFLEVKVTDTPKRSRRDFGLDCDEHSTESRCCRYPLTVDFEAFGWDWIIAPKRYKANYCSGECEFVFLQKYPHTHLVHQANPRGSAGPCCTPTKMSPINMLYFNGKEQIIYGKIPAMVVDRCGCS

B1: Recombinant ActRIIB-Fc chimera (R&D Systems, Cat. No. 339-RB/CF) (Fc fusion, not shown: a dimerising Fc or GST)
chain: SGRGEAETRECIYYNANWELERTNQSGLERCEGEQDKRLHCYASWRNSSGTIELVKKGCWLDDFNCYDRQECVATEENPQVYFCCCEGNFCNERFTHLPEAGGPEVTYEPPPTAPT
Q: With B1 as the binder, how does the binding read?
A: binds
